The record followed here is the RNAGym collection of RNA variant scans (doi:10.1126/science.aae0568).

Sequences and labels used below:
B1: tRNA (parent)
chain: GUUCCGUUGGCGUAAUGGUAACGCGUCUCCCUCCUAAGGAGAAGACUGCGGGUUCGAGUCCCGUACGGAACG

Variants at the floor of the assay are shown more often than the library holds them.

This data set covers variants of B1. In words: yeast fitness relative to wild type (ratio to wild type); higher = fitter; tRNA-Arg(CCU), competitive growth, 37 C, YPD. The gist of the method:
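Changes in genotype frequencies gave Darwinian fitness relative to wild type. Frequencies were read by 100-nucleotide paired-end sequencing of gene amplicons before and after pooled Saccharomyces cerevisiae strains, carrying tRNA-Arg(CCU) gene variants at the native locus, were competed in YPD at 37°C for 24 hours in six replicates. A genotype was kept only with ≥ 100 starting reads, and estimates < 0.5 were set to 0.5.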
Turning to G17A G25C A65C, the yeast fitness was 0.611. The figure for C11U G18C C22U G56C is no more than 0.5; for A20U C61U A65U it is no more than 0.5; for C29U C49U U53C C61A it is no more than 0.5. As to U8A C33G A57C, the yeast fitness was no more than 0.5. As for G10C C29G A65C, the figure is no more than 0.5; as for C11G A14G A15U G23C U53A, no more than 0.5; as for C11A U16C G18C C61A, no more than 0.5. On to A14C A21G C22U C33G G41C G56C G58A G63C A65U, for which the yeast fitness was no more than 0.5. As for A21U A42G C49U, the figure is no more than 0.5; as for A20G C60U C61G, no more than 0.5.

Turning to C5G U7G C33G A70U, the yeast fitness was no more than 0.5. On to G6A G10C U13C A15U C61A, for which the yeast fitness is no more than 0.5. On to C30G C31G U32C A37G, for which the yeast fitness is no more than 0.5.

C5U U47C A57G C62U: the yeast fitness is no more than 0.5. Consider C5U A20U C30U, for which the yeast fitness was no more than 0.5. For the variant C4A C33G C61G G68C, the yeast fitness is no more than 0.5.

Regarding C27U C33A U59A, the yeast fitness is no more than 0.5.

A20G A43U U47C C61G: the yeast fitness is no more than 0.5. Turning to G10A C34U G44A, the yeast fitness is no more than 0.5. As for C29G C55G A65C G68C, the figure is no more than 0.5; as for U8A A37G C55U G68A, no more than 0.5; as for G10A A40U C55U, no more than 0.5.

Take A36U A65G C66G G68A: the yeast fitness was no more than 0.5. The figure for C31A A45C G67C G68A is no more than 0.5; for G25A C34G C49U G63C U64C it is no more than 0.5; for C4U C11U U26G U28C A37G G41A C49G it is no more than 0.5.

In the case of G25A A43U U54A C66U, the yeast fitness was no more than 0.5. Take U7C C30U C61A: the yeast fitness was no more than 0.5. Turning to C5U A15U C31U C49U, the yeast fitness is no more than 0.5.

With G25C U53C A65C, the yeast fitness worked out at 0.697. Consider C4G A15C C46A, for which the yeast fitness is no more than 0.5. The figure for C4U A15G A21G C34G A45G A65C is no more than 0.5; for C27U A36C C62U it is no more than 0.5; for U8A C22G G25A C27A C33U it is no more than 0.5.

In the case of U13A U47C U64A C66U G68C, the yeast fitness was no more than 0.5. The figure for G12A A14C G50C A69C is no more than 0.5; for A15C A36G it is 0.888; for G38U A57C U64A it is no more than 0.5.

Turning to A14U G44C G58A, the yeast fitness was no more than 0.5. As for G10C U16G C31A U32G C66A, the figure is no more than 0.5. For C4G A40U C49A C55U G68A, the yeast fitness was no more than 0.5. Regarding G9C C22U A70G, the yeast fitness was no more than 0.5. In the case of C11G U54C C62U, the yeast fitness is no more than 0.5. The figure for G12C U26A C33A C34G A65U is no more than 0.5; for U13C A20U C34U it is no more than 0.5. For the variant C11G A20U C29A C30U C46G, the yeast fitness was no more than 0.5.

On to C31U U32C G67C, for which the yeast fitness was no more than 0.5.

For the variant C4G U8C U32A A37C C49G U64C, the yeast fitness was no more than 0.5.

G6A A20C C66A: the yeast fitness came to 0.549. The figure for A20C C33A G41C A45U is no more than 0.5. The figure for U13C C27G U35A A43C is no more than 0.5; for G9A A20G U59A C66G it is no more than 0.5; for C5U G17A A40U A42C C49A it is 0.684. With C24A A43U G50A G67A, the yeast fitness is no more than 0.5.

Regarding C30A A37G A57G U64A, the yeast fitness is no more than 0.5. The figure for G6A A15C A57G U64A C66A A69C is no more than 0.5.

G39C U53A: the yeast fitness was no more than 0.5. For G39A G51A U53A G63C, the yeast fitness was no more than 0.5. As to A15U C46G C61A C66U, the yeast fitness was no more than 0.5.

As to G25A C27G C61G, the yeast fitness was found to be 0.574.

Consider A21G U47C C49U, for which the yeast fitness was 0.773. As for A43C G50C C55G, the figure is no more than 0.5. As for G9A C30A G48C, the figure is no more than 0.5; as for C5G C11G A14U A15U C24A C33G C49G A65G, no more than 0.5; as for U19C A43G G44C A45C, no more than 0.5.

In the case of U2G A45U G67C, the yeast fitness is no more than 0.5. The figure for U7A G39C A43C G44C U47C C62U is no more than 0.5; for C4A C29G C30U it is no more than 0.5. G12C A36U U64A: the yeast fitness was no more than 0.5. As for A36G G39A G56A, the figure is no more than 0.5; as for U19A C30G C61G, no more than 0.5; as for U13A C33G A43G C66U, no more than 0.5. U53A G63C G67A: the yeast fitness is no more than 0.5.

In the case of G18A C33U G63A C66U, the yeast fitness is no more than 0.5. The figure for U2G G12U A43U is 0.631. As for C5G U35C G44C C62A G68C A69U, the figure is no more than 0.5; as for U3C C33G A45C G50C, no more than 0.5; as for C5A G12A C22G C27G A36U A40C C66U, no more than 0.5. The figure for U28C C49U G67A is no more than 0.5; for C4G U7A A57U it is no more than 0.5; for U3G C31G G44C U53C A65U it is no more than 0.5. Consider U7A A14G, for which the yeast fitness turned out to be 0.709. The figure for C5G G17C G25A G52A is no more than 0.5. As for G23C A42U C49G, the figure is no more than 0.5.

Turning to A43C C49G A57G A69C, the yeast fitness was no more than 0.5.

With A20C U35A A36G G44C U54C A57C, the yeast fitness was no more than 0.5.

Turning to C24A G39C A70G, the yeast fitness was no more than 0.5.

Take C5U G51C G56A G58C: the yeast fitness is no more than 0.5.

Consider C5U C61A, for which the yeast fitness amounted to 0.612. As for C24G U32A C55G, the figure is no more than 0.5. As for A15G A45G G50C A69U, the yeast fitness was no more than 0.5.

For the variant U7A A21C C33A A45U A57U, the yeast fitness was no more than 0.5. As for C5G G25C A43C C62U, the figure is no more than 0.5; as for C22G A40U A43U, 0.503; as for A42G C61A G63C, no more than 0.5.

In the case of U59A C66G, the yeast fitness came to 0.669.

For U3C C55G C61U, the yeast fitness is no more than 0.5. As to C11U G50C G63C, the yeast fitness is no more than 0.5. As for U7A U8C A45G G50A U54C, the figure is no more than 0.5. Consider A20U C31U G56A C61U, for which the yeast fitness is no more than 0.5.

G9C C30G G50U: the yeast fitness is no more than 0.5.

On to U3G U7A G9A G23C C30U C31G A43C G51A, for which the yeast fitness was no more than 0.5.

For the variant G18A U35A G48C, the yeast fitness is no more than 0.5.

Take U13C A37C G50A U53A C61U: the yeast fitness is no more than 0.5. Turning to U54G G67A, the yeast fitness was 0.637. The figure for C5G G9C C46G C61A is no more than 0.5.

For the variant G12A A36G C49G C62A G63A A70C, the yeast fitness is no more than 0.5. The figure for A15G G23A C34G G67A is no more than 0.5. With U35C C66U, the yeast fitness is 0.781. G41C A57U U64C: the yeast fitness was no more than 0.5. The figure for U3C G6C A14U A15G G25A G38A U47A C60G A70G is no more than 0.5; for C4U G6A C29G G41A C60A it is no more than 0.5. In the case of U2C C27G C46U, the yeast fitness was found to be 0.705.

Consider U8A G23C C33A, for which the yeast fitness was no more than 0.5. Turning to C24U G51C, the yeast fitness worked out at 0.624. Take A15U A45G C49G: the yeast fitness was no more than 0.5. The figure for G10A U13G C27U C46G A69C is 0.506; for G12A A15U A21C C49U C62U it is no more than 0.5. For C11A C22U C30G A65G, the yeast fitness was no more than 0.5. As for U2A A70U, the yeast fitness was 1.06. Consider C4A G50C C60G, for which the yeast fitness was no more than 0.5. The figure for C31G G56A is 0.98; for C11U U13A C34U G41A A43U it is no more than 0.5. Consider C11U C22U G44C G52A C66G G68C, for which the yeast fitness is no more than 0.5. As for C4U C24A C31A, the figure is no more than 0.5; as for U8G A43U C46G G67C, no more than 0.5; as for G9A G51A A57U U59C, no more than 0.5. For C60U G67A A69U, the yeast fitness is no more than 0.5. The figure for A20C C24G U35A C60G is no more than 0.5. The figure for G10C A42C C55A G56A is no more than 0.5; for C5G C22U C62A A65C it is no more than 0.5. The figure for C30G C34G A37G A57U G63A is no more than 0.5; for C33U A40U G56C it is no more than 0.5.

As for C4A G17A G51C, the yeast fitness was no more than 0.5. Regarding G9U U16G C62A G67C, the yeast fitness was no more than 0.5.

On to U3C A14U A21U A37G C46U, for which the yeast fitness was no more than 0.5. On to G9C A20C C27U G39A G56A, for which the yeast fitness is no more than 0.5. As for A43G U54C, the figure is 0.905. As for C5U A14U C33G A69C, the figure is no more than 0.5; as for A37G U47A C55A G58C, no more than 0.5. The figure for C34U G52C A57U is no more than 0.5; for C4A C31U G44A A45U it is 0.574. Regarding G10C C31U, the yeast fitness was 0.78. The figure for G17C C30G A57C is no more than 0.5; for G25C C30G C62U it is no more than 0.5. The figure for A14U C30U U54A C62U is no more than 0.5; for U28G U59A A70C it is no more than 0.5. The figure for C33U C55G G67A A70G is no more than 0.5.

With C11U A14U C24G A57U, the yeast fitness is no more than 0.5. On to C11G U13G A43G C55U, for which the yeast fitness was no more than 0.5. As for A40G U47A C61U G68C, the figure is no more than 0.5; as for U28C G67C, 0.845; as for U16C C29G A42G, no more than 0.5. In the case of C29U G41C C49A, the yeast fitness was 0.62. The figure for U3C C30U U35A is no more than 0.5; for C33G U47A it is 0.579. Regarding C24G C33G U59C, the yeast fitness is no more than 0.5. As for G9A U19C G48C G56C, the figure is no more than 0.5; as for A15C C61U, 0.713; as for U8C C11G C29A C61U, no more than 0.5.

Turning to A15G A36U C62G, the yeast fitness was no more than 0.5. The figure for A37G C66A A69U is no more than 0.5; for U2G C60A C66G it is 0.989. As for U3A G6A U8G U19C A40U C55A, the figure is no more than 0.5; as for C4U C27U G39C U54G C55U, no more than 0.5. With A15U C31U C33U G52A U59A, the yeast fitness was no more than 0.5.
